Experimental findings from PMC12183592, “Discovery of Iboga-Derived Ligands for the Sigma‑2 Receptor” (ACS Bio & Med Chem Au, 2025) are described below.

Molecules are shown by their SMILES.

In this data set the test system is Sigma 2 (S2R). The format is binding. Conditions: for S2R selectivity: S2R over S1R, Table 1.

Turning to `CCC1CC2CC3c4[nH]c5cc(C(F)(F)F)ccc5c4CCN(C2)C13` (centres unmarked) [7e], the “selectivity over S1R” value amounted to 7.4 × and the S2R selectivity worked out at 7.4.

For `CC[C@H]1C[C@@H]2C[C@H]3c4[nH]c5cc(OC)ccc5c4CC[N@@](C2)[C@@H]13` [tabernanthine (3), tabernanthine, reference compound], the S2R selectivity was 8.4.

`CC[C@H]1C[C@H]2C[C@H]3c4[nH]c5ccccc5c4CCN(C2)[C@@H]13` [ibogamine (1), ibogamine, reference compound] returned an S2R selectivity of 12.9.

On to `C[C@H]1CC2CC3c4[nH]c5ccccc5c4CCN(C2)C31` (some centres unmarked) [7g], for which the S2R selectivity came to 1.5.
